The results in this text go back to patent US20220098289A1.

In assay [1] the target is transgenic human APP (human) (UniProt P05067). Kind of assay: co-immunoprecipitation from the synaptosomal fraction, Western blot.
For assay [2] the target is unchanged. Kind of assay: co-immunoprecipitation from the synaptosomal fraction, Western blot (FIG. 5U).

No constants are given. Whether binding was seen depends on the method and setting. Binding seen in cells or lysates may run through a third protein. Some results given as binding are weak or reduced against the parent protein; the word gives no strength.

B1: mouse Sfrp1 (protein, UniProt Q8C4U3 32-314, looked up)
chain: SEYDYVSFQSDIGSYQSGRFYTKPPQCVDIPVDLRLCHNVGYKKMVLPNLLEHETMAEVKQQASSWVPLLNKNCHMGTQVFLCSLFAPVCLDRPIYPCRWLCEAVRDSCEPVMQFFGFYWPEMLKCDKFPEGDVCIAMTPPNTTEASKPQGTTVCPPCDNELKSEAIIEHLCASEFALRMKIKEVKKENGDKKIVPKKKKPLKLGPIKKKELKRLVLFLKNGADCPCHQLDNLSHNFLIMGRKVKSQYLLTAIHKWDKKNKEFKNFMKRMKNHECPTFQSVFK
Regarding B1, the binding entry in assay [1] and in assay [2] was “binds” throughout.
